Assay [1] addresses miniSOG fused to the N-terminus of Parkin (human (cDNA from HEK293T cells)) (UniProt O60260). The assay can be described thus: proximity labelling; PDPL in living HEK293T cells stably expressing miniSOG fused to Parkin; 10 μM CCCP with probe 3 in HBSS 1 h at 37 °C, blue LED; biotin-PEG3-azide, NeutrAvidin enrichment, LC-MS/MS with label-free quantification against HEK293T.
Assay [2] has the same target. The assay can be described thus: proximity labelling; PDPL processing and Western blot of the pull-down; parental HEK293T cells compared with the N-terminal Parkin stable line. For orientation: In western blotting, separated proteins are transferred to a membrane and probed.

By UniProt entry, the sequences of proteins in these tests, tags left out. Residues count along the entry.
UniProt O60260: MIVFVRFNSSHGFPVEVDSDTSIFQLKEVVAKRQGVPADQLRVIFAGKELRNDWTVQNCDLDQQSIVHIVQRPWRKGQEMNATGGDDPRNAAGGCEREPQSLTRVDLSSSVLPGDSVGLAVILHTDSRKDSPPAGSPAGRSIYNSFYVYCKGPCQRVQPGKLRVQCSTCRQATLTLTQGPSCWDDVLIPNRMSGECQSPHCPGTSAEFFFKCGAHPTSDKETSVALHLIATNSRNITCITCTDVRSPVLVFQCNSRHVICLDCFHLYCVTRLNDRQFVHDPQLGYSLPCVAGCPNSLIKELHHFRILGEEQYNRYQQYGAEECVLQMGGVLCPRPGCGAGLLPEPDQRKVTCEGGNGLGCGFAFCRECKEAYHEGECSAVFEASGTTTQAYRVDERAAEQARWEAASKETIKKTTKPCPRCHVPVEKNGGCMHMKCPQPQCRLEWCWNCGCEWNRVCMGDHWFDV
UniProt Q9H832: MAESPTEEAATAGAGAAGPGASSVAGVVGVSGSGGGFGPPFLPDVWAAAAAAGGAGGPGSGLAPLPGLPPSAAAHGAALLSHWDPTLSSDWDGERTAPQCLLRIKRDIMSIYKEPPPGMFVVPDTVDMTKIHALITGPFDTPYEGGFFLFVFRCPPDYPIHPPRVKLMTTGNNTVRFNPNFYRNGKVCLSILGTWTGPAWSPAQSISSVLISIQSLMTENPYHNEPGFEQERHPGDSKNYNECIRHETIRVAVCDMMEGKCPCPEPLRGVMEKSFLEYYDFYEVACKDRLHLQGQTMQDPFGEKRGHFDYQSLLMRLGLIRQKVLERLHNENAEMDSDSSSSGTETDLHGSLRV
UniProt P55036: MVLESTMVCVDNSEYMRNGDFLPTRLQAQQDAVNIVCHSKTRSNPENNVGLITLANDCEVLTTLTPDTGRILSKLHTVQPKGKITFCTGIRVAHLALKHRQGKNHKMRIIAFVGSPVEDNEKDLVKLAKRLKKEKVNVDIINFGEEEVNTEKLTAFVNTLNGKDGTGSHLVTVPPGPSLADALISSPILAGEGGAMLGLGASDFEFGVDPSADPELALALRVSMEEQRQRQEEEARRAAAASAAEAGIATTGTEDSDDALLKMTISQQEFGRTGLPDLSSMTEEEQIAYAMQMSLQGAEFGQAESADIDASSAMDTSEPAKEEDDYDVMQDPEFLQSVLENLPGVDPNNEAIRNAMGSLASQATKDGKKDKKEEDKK
UniProt Q9NP77: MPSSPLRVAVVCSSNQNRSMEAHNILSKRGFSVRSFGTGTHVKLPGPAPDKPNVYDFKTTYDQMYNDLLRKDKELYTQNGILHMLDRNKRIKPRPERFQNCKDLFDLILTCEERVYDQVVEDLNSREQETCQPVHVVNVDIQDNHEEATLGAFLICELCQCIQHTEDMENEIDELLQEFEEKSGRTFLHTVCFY
UniProt Q9Y6K9: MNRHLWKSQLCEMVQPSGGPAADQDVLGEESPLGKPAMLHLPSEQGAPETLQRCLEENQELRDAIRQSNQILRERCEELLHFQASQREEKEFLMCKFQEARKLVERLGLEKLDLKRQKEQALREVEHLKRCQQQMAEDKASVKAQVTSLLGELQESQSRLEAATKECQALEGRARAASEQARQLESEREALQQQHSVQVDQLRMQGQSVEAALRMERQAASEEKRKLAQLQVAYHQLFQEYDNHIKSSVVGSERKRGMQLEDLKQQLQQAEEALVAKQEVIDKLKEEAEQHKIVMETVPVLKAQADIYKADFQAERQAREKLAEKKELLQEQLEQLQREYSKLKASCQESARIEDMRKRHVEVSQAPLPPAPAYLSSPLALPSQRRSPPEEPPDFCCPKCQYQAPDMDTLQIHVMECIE
UniProt P33316, residues 70-252: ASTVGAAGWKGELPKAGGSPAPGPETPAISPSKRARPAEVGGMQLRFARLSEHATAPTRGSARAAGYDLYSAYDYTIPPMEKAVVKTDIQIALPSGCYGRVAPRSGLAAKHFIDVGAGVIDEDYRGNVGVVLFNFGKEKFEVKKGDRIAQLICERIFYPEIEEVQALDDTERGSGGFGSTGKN
UniProt P63165, residues 1-97: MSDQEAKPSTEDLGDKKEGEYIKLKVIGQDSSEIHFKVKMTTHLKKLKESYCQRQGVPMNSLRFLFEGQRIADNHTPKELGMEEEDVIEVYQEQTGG
UniProt Q9UNE7: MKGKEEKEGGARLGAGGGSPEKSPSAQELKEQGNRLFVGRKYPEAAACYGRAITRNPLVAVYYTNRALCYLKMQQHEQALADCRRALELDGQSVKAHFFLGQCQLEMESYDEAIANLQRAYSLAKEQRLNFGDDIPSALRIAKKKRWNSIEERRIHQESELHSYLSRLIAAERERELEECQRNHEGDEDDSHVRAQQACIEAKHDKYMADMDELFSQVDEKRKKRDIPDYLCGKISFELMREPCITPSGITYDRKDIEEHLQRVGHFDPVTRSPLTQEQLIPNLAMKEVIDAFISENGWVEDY
UniProt Q16186: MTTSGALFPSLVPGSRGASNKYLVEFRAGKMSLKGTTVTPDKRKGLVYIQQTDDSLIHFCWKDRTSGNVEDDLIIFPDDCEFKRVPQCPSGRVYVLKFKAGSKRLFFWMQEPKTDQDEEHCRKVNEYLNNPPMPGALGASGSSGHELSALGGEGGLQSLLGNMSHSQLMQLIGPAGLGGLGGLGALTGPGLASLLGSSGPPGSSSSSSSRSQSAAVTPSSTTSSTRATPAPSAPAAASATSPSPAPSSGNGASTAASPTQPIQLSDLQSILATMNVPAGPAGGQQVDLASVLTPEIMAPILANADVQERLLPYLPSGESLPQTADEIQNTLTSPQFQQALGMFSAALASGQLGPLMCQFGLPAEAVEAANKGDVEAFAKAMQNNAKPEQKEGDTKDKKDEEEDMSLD
UniProt Q12972: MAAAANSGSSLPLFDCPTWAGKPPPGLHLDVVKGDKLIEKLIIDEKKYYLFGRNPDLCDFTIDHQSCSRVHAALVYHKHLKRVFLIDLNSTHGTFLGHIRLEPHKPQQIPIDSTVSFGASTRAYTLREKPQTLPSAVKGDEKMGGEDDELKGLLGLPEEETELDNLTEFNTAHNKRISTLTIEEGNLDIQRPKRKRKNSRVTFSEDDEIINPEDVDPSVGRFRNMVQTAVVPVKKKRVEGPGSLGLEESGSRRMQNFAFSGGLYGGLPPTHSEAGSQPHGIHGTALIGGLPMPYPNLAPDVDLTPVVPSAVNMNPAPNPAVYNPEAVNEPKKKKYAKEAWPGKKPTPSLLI
UniProt P25685: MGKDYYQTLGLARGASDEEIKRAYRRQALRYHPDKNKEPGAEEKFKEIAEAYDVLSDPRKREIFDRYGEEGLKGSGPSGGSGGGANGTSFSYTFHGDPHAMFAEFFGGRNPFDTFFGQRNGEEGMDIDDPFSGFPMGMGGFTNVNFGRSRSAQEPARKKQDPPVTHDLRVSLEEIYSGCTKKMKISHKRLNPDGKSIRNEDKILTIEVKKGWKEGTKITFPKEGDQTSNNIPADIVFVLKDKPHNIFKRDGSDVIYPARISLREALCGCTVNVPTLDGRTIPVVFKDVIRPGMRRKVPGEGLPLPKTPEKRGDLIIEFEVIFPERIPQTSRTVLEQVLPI
UniProt Q99700: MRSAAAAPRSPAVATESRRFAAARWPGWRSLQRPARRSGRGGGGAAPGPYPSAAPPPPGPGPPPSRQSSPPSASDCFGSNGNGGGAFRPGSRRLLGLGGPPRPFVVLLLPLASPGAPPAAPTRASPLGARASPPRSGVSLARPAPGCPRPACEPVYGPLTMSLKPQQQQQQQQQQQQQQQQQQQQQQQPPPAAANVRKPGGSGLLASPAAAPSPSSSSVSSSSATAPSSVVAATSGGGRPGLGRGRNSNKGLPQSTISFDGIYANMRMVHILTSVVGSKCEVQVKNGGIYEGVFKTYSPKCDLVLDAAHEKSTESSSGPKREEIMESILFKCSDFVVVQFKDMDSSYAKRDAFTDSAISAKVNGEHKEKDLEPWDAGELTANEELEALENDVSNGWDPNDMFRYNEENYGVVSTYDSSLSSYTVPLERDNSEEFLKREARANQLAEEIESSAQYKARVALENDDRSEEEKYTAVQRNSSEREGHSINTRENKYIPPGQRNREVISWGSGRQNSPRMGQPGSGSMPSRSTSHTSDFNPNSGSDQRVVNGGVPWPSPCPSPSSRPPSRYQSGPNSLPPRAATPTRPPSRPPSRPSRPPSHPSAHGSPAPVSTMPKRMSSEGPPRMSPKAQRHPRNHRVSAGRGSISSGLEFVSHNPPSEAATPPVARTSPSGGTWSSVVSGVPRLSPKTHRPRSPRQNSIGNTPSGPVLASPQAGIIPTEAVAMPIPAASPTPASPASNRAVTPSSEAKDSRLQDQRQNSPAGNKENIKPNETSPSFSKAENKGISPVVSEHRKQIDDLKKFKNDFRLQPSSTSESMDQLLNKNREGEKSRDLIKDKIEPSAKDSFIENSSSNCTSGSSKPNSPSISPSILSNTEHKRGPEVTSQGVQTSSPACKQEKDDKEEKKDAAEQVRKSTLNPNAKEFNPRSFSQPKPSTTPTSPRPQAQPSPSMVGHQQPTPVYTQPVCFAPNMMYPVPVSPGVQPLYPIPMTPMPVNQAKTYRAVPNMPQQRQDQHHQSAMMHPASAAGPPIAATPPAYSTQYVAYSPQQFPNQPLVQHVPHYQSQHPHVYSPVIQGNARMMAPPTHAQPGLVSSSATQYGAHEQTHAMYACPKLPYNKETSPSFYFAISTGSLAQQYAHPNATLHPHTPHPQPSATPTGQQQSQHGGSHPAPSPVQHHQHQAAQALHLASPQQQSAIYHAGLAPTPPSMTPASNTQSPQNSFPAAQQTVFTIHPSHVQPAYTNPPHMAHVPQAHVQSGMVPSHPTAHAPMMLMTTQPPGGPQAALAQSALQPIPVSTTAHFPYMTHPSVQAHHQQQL
UniProt P11142: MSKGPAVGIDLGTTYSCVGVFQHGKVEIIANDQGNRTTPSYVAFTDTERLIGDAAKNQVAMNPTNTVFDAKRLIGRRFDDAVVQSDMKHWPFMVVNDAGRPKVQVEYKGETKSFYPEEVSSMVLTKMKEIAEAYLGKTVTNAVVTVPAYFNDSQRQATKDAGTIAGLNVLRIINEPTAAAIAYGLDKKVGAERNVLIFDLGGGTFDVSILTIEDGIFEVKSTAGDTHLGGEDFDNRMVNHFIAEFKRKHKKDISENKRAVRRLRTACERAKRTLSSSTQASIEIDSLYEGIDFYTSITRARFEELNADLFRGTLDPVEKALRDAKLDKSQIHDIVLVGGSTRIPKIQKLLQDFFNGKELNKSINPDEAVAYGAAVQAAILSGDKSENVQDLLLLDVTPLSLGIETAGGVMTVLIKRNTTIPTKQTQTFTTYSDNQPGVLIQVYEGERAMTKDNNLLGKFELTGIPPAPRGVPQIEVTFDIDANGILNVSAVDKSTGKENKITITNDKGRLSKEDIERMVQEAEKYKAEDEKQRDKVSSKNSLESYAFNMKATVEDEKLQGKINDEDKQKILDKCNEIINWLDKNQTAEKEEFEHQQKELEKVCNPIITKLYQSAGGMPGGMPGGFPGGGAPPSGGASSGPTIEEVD

Results are given in words; binding and its absence hold for the method and conditions named. In cells and extracts the contact can be indirect. A yes stands for co-enrichment or nearness to the bait. Other partners may have been found.

On to UBE2Z (from UniProt Q9H832 1-354), for which the binding result in assay [1] was “binds”.
Consider PSMD4 (from UniProt P55036 1-377), for which the binding result in assay [1] was “binds”.
Same read-out and setting: to Ssu72 (from UniProt Q9NP77 1-194) belongs “binds”; to IKBKG (from UniProt Q9Y6K9 1-419), “binds”.
Turning to DUT (from UniProt P33316 70-252), the binding result in assay [1] and in assay [2] was “binds” in each case.
In the case of TP53 (from UniProt P04637 1-393), the binding result in assay [1] is listed as “binds”.
Turning to SUMO1 (from UniProt P63165 1-97), in assay [1], the binding result is given as “binds”.
For the molecule STUB1 (from UniProt Q9UNE7 1-303), in assay [1], the binding entry is recorded as “binds”.
Regarding ARDM1 (from UniProt Q16186 1-407), in assay [1], the binding entry was “binds”.
Same read-out and setting: under PPP1R8 (from UniProt Q12972 1-351) stands “binds”.
With DNAJB1 (from UniProt P25685 1-340), the binding entry in assay [1] and in assay [2] was “binds” in each case.
Consider ATXN2 (from UniProt Q99700 1-1313), for which the binding result in assay [1] is listed as “binds”.
With HSPA8 (from UniProt P11142 1-646), the binding entry in assay [1] is on record as “binds”.

B1: UCHL3 (protein, UniProt P15374 1-230)
chain: MEGQRWLPLEANPEVTNQFLKQLGLHPNWQFVDVYGMDPELLSMVPRPVCAVLLLFPITEKYEVFRTEEEEKIKSQGQDVTSSVYFMKQTISNACGTIGLIHAIANNKDKMHFESGSTLKKFLEESVSMSPEERARYLENYDAIRVTHETSAHEGQTEAPSIDEKVDLHFIALVHVDGHLYELDGRKPFPINHGETSDETLLEDAIEVCKKFMERDPDELRFNAIALSAA
For the molecule B1, the binding result in assay [1] is “binds”.

B2: EPS15 (protein, UniProt P42566 1-896)
chain: MAAAAQLSLTQLSSGNPVYEKYYRQVDTGNTGRVLASDAAAFLKKSGLPDLILGKIWDLADTDGKGILNKQEFFVALRLVACAQNGLEVSLSSLNLAVPPPRFHDTSSPLLISGTSAAELPWAVKPEDKAKYDAIFDSLSPVNGFLSGDKVKPVLLNSKLPVDILGRVWELSDIDHDGMLDRDEFAVAMFLVYCALEKEPVPMSLPPALVPPSKRKTWVVSPAEKAKYDEIFLKTDKDMDGFVSGLEVREIFLKTGLPSTLLAHIWSLCDTKDCGKLSKDQFALAFHLISQKLIKGIDPPHVLTPEMIPPSDRASLQKNIIGSSPVADFSAIKELDTLNNEIVDLQREKNNVEQDLKEKEDTIKQRTSEVQDLQDEVQRENTNLQKLQAQKQQVQELLDELDEQKAQLEEQLKEVRKKCAEEAQLISSLKAELTSQESQISTYEEELAKAREELSRLQQETAELEESVESGKAQLEPLQQHLQDSQQEISSMQMKLMEMKDLENHNSQLNWCSSPHSILVNGATDYCSLSTSSSETANLNEHVEGQSNLESEPIHQESPARSSPELLPSGVTDENEVTTAVTEKVCSELDNNRHSKEEDPFNVDSSSLTGPVADTNLDFFQSDPFVGSDPFKDDPFGKIDPFGGDPFKGSDPFASDCFFRQSTDPFATSSTDPFSAANNSSITSVETLKHNDPFAPGGTVVAASDSATDPFASVFGNESFGGGFADFSTLSKVNNEDPFRSATSSSVSNVVITKNVFEETSVKSEDEPPALPPKIGTPTRPCPLPPGKRSINKLDSPDPFKLNDPFQPFPGNDSPKEKDPEIFCDPFTSATTTTNKEADPSNFANFSAYPSEEDMIEWAKRESEREEEQRLARLNQQEQEDLELAIALSKSEISEA
For B2, the binding entry in assay [1] is listed as “binds”.

B3: SNW1 (protein, UniProt Q13573 1-536)
chain: MALTSFLPAPTQLSQDQLEAEEKARSQRSRQTSLVSSRREPPPYGYRKGWIPRLLEDFGDGGAFPEIHVAQYPLDMGRKKKMSNALAIQVDSEGKIKYDAIARQGQSKDKVIYSKYTDLVPKEVMNADDPDLQRPDEEAIKEITEKTRVALEKSVSQKVAAAMPVRAADKLAPAQYIRYTPSQQGVAFNSGAKQRVIRMVEMQKDPMEPPRFKINKKIPRGPPSPPAPVMHSPSRKMTVKEQQEWKIPPCISNWKNAKGYTIPLDKRLAADGRGLQTVHINENFAKLAEALYIADRKAREAVEMRAQVERKMAQKEKEKHEEKLREMAQKARERRAGIKTHVEKEDGEARERDEIRHDRRKERQHDRNLSRAAPDKRSKLQRNENRDISEVIALGVPNPRTSNEVQYDQRLFNQSKGMDSGFAGGEDEIYNVYDQAWRGGKDMAQSIYRPSKNLDKDMYGDDLEARIKTNRFVPDKEFSGSDRRQRGREGPVQFEEDPFGLDKFLEEAKQHGGSKRPSDSSRPKEHEHEGKKRRKE
Turning to B3, the binding result in assay [1] is given as “binds”.

B4: PSPC1 (protein, UniProt Q8WXF1 1-523)
chain: MMLRGNLKQVRIEKNPARLRALESAVGESEPAAAAAMALALAGEPAPPAPAPPEDHPDEEMGFTIDIKSFLKPGEKTYTQRCRLFVGNLPTDITEEDFKRLFERYGEPSEVFINRDRGFGFIRLESRTLAEIAKAELDGTILKSRPLRIRFATHGAALTVKNLSPVVSNELLEQAFSQFGPVEKAVVVVDDRGRATGKGFVEFAAKPPARKALERCGDGAFLLTTTPRPVIVEPMEQFDDEDGLPEKLMQKTQQYHKEREQPPRFAQPGTFEFEYASRWKALDEMEKQQREQVDRNIREAKEKLEAEMEAARHEHQLMLMRQDLMRRQEELRRLEELRNQELQKRKQIQLRHEEEHRRREEEMIRHREQEELRRQQEGFKPNYMENREQEMRMGDMGPRGAINMGDAFSPAPAGNQGPPPMMGMNMNNRATIPGPPMGPGPAMGPEGAANMGTPMMPDNGAVHNDRFPQGPPSQMGSPMGSRTGSETPQAPMSGVGPVSGGPGGFGRGSQGGNFEGPNKRRRY
For the molecule B4, in assay [1], the binding entry was “binds”.

B5: PSMD9 (protein, UniProt O00233 1-223)
chain: MSDEEARQSGGSSQAGVVTVSDVQELMRRKEEIEAQIKANYDVLESQKGIGMNEPLVDCEGYPRSDVDLYQVRTARHNIICLQNDHKAVMKQVEEALHQLHARDKEKQARDMAEAHKEAMSRKLGQSESQGPPRAFAKVNSISPGSPASIAGLQVDDEIVEFGSVNTQNFQSLHNIGSVVQHSEGKPLNVTVIRRGEKHQLRLVPTRWAGKGLLGCNIIPLQR
With B5, the binding result in assay [1] is “binds”.
